Source: PubChem BioAssay AID1053208 (Peter MacCallum Cancer Centre, 2014)
Purpose: 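Find knock-downs that sensitise mouse osteosarcoma cells to doxorubicin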 (primary screen). Cells: mouse osteosarcoma cells, early-passage culture from an engineered mouse model of fibroblastic bone tumour. Reagent: siRNA pool against mouse genes, 40 nM. Duration: about 120 h (48 h before drug, then 72 h with drug). Challenge: doxorubicin 100 nM for 72 h, roughly 30-40% inhibitory dose. Detection: 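Viability read as ATP luminescence after 72 h of 100 nM doxorubicin or none, duplicate wells averaged, scaled to non-targeting siRNA, then expressed as robust z-scores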. Reading the numbers: viability z-score with doxorubicin: higher = more viable cells under doxorubicin; viability z-score without drug: higher = more viable cells with knock-down alone. Active means: 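Called active if knock-down leaves viability unchanged without drug (z within -2 to 2) but lowers it with doxorubicin (z at or under -2)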.
The whole screen tested about 17,000 reagents; below is a part drawn at random. Over the whole deposit, 788 (4.7%) are marked active. 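Calls rest on z-score classes alone; an extra cut-off of viability at most 70% of control was not applied to them.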 A number with no mark means an inactive call. Not all columns of the deposit are shown.

{"target gene": "Hoxb4 (GeneID 15412)", "combined z-score class": "no change with or without drug", "viability z-score with doxorubicin": 0.11, "viability z-score without drug": 1.52}
{"target gene": "Haspin (GeneID 14841)", "combined z-score class": "no change with or without drug", "viability z-score with doxorubicin": -0.67, "viability z-score without drug": -0.51}
{"target gene": "Hmgb1 (GeneID 15289)", "combined z-score class": "no change with or without drug", "viability z-score with doxorubicin": -0.34, "viability z-score without drug": -0.51}
{"target gene": "Ifna7 (GeneID 15970)", "combined z-score class": "low cell count without drug only", "viability z-score with doxorubicin": -1.91, "viability z-score without drug": -2.87}
{"target gene": "Vmn1r53 (GeneID 113853)", "combined z-score class": "no change with or without drug", "viability z-score with doxorubicin": 0, "viability z-score without drug": 0.51}
{"target gene": "Usp30 (GeneID 100756)", "combined z-score class": "no change with or without drug", "viability z-score with doxorubicin": -0.9, "viability z-score without drug": -0.84}
{"target gene": "Dmac2l (GeneID 68055)", "combined z-score class": "no change with or without drug", "viability z-score with doxorubicin": 0.34, "viability z-score without drug": 0.84}
{"target gene": "Zfp319 (GeneID 79233)", "combined z-score class": "no change with or without drug", "viability z-score with doxorubicin": 0.45, "viability z-score without drug": 1.35}
{"target gene": "LTO1 (GeneID 72284)", "combined z-score class": "no change with or without drug", "viability z-score with doxorubicin": -0.34, "viability z-score without drug": 1.18}
{"target gene": "Umps (GeneID 22247)", "combined z-score class": "no change with or without drug", "viability z-score with doxorubicin": 1.24, "viability z-score without drug": 1.01}
{"target gene": "Ascl1 (GeneID 17172)", "combined z-score class": "no change with or without drug", "viability z-score with doxorubicin": -0.9, "viability z-score without drug": -1.18}
{"target gene": "Vps13b (GeneID 666173)", "combined z-score class": "no change with or without drug", "viability z-score with doxorubicin": -0.11, "viability z-score without drug": -0.84}
{"target gene": "Nrsn1 (GeneID 22360)", "combined z-score class": "low cell count with and without drug", "viability z-score with doxorubicin": -2.92, "viability z-score without drug": -2.36}
{"target gene": "Crygs (GeneID 12970)", "combined z-score class": "no change with or without drug", "viability z-score with doxorubicin": 1.46, "viability z-score without drug": 1.52}
{"target gene": "Asic5 (GeneID 58170)", "combined z-score class": "no change with or without drug", "viability z-score with doxorubicin": -0.45, "viability z-score without drug": -0.17}
{"target gene": "Gja1 (GeneID 14609)", "combined z-score class": "no change with or without drug", "viability z-score with doxorubicin": -0.22, "viability z-score without drug": -0.34}
{"target gene": "Agrn (GeneID 11603)", "combined z-score class": "no change with or without drug", "viability z-score with doxorubicin": -0.67, "viability z-score without drug": 0.17}
{"target gene": "Srpra (GeneID 67398)", "combined z-score class": "no change with or without drug", "viability z-score with doxorubicin": 0.9, "viability z-score without drug": -1.85}
{"target gene": "Or52h2 (GeneID 259057)", "combined z-score class": "no change with or without drug", "viability z-score with doxorubicin": -0.45, "viability z-score without drug": 0.51}

5 entries from above, arranged by “viability z-score without drug”, high to low.
{"target gene": "Crygs (GeneID 12970)", "combined z-score class": "no change with or without drug", "viability z-score with doxorubicin": 1.46, "viability z-score without drug": 1.52}
{"target gene": "Asic5 (GeneID 58170)", "combined z-score class": "no change with or without drug", "viability z-score with doxorubicin": -0.45, "viability z-score without drug": -0.17}
{"target gene": "Vps13b (GeneID 666173)", "combined z-score class": "no change with or without drug", "viability z-score with doxorubicin": -0.11, "viability z-score without drug": -0.84}
{"target gene": "Ascl1 (GeneID 17172)", "combined z-score class": "no change with or without drug", "viability z-score with doxorubicin": -0.9, "viability z-score without drug": -1.18}
{"target gene": "Nrsn1 (GeneID 22360)", "combined z-score class": "low cell count with and without drug", "viability z-score with doxorubicin": -2.92, "viability z-score without drug": -2.36}

More records:
{"target gene": "Baiap2l1 (GeneID 66898)", "combined z-score class": "no change with or without drug", "viability z-score with doxorubicin": 0.67, "viability z-score without drug": 0.51}
{"target gene": "Cyp1a2 (GeneID 13077)", "combined z-score class": "no change with or without drug", "viability z-score with doxorubicin": 0.67, "viability z-score without drug": -1.85}
{"target gene": "Abcc6 (GeneID 27421)", "combined z-score class": "no change with or without drug", "viability z-score with doxorubicin": -1.24, "viability z-score without drug": -0.51}
{"target gene": "Ash1l (GeneID 192195)", "combined z-score class": "no change with or without drug", "viability z-score with doxorubicin": -0.22, "viability z-score without drug": -1.35}
{"target gene": "Slc7a14 (GeneID 241919)", "combined z-score class": "no change with or without drug", "viability z-score with doxorubicin": -0.9, "viability z-score without drug": 1.52}
{"target gene": "Epha8 (GeneID 13842)", "combined z-score class": "no change with or without drug", "viability z-score with doxorubicin": 0.67, "viability z-score without drug": 0.17}
{"target gene": "Galr1 (GeneID 14427)", "combined z-score class": "no change with or without drug", "viability z-score with doxorubicin": 0.9, "viability z-score without drug": 0.17}
{"target gene": "Znrf2 (GeneID 387524)", "combined z-score class": "no change with or without drug", "viability z-score with doxorubicin": 0.34, "viability z-score without drug": 1.18}
{"target gene": "Zscan22 (GeneID 232878)", "combined z-score class": "no change with or without drug", "viability z-score with doxorubicin": 1.12, "viability z-score without drug": 0.34}
{"target gene": "4930522H14Rik (GeneID 67646)", "combined z-score class": "high cell count without drug only", "viability z-score with doxorubicin": 0.22, "viability z-score without drug": 2.36}
{"target gene": "Mpv17l (GeneID 93734)", "combined z-score class": "no change with or without drug", "viability z-score with doxorubicin": -0.45, "viability z-score without drug": -1.01}
{"target gene": "Nrp2 (GeneID 18187)", "combined z-score class": "no change with or without drug", "viability z-score with doxorubicin": -0.79, "viability z-score without drug": -0.17}
{"target gene": "Nectin3 (GeneID 58998)", "combined z-score class": "no change with or without drug", "viability z-score with doxorubicin": 0.9, "viability z-score without drug": 0.17}
{"target gene": "Esyt1 (GeneID 23943)", "combined z-score class": "no change with or without drug", "viability z-score with doxorubicin": -0.11, "viability z-score without drug": 1.35}
{"target gene": "Pithd1 (GeneID 66193)", "combined z-score class": "no change with or without drug", "viability z-score with doxorubicin": 0.9, "viability z-score without drug": -1.35}
{"target gene": "Dedd2 (GeneID 67379)", "combined z-score class": "no change with or without drug", "viability z-score with doxorubicin": -0.34, "viability z-score without drug": 0.17}
{"target gene": "Or10j2 (GeneID 258645)", "combined z-score class": "low cell count without drug only", "viability z-score with doxorubicin": 0.34, "viability z-score without drug": -2.19}
